Where two headings read alike, the source gives them in different places. Not every detail of the peptide structures is certain; ends, links or a residue may be inferred. Ends that are not written are not given here.
Assays:
[1] = system: MBP (84-102) Specific T cell clones; assay: Stimulation of proliferation of MBP (84-102) specific T cell clones by truncated peptides; type: cell-based, human; details: for EC50: reference point MBP(84-102) peptide, read-out: Peptide concentrations that give 50% maximal stimulation
[2] = system: actively induced EAE; assay: Suppression of actively induced EAE (immunization with MBP/CFA); type: in vivo, Lewis rats; details: FIG. 7, words; for suppression of EAE via oral tolerization: administered orally prior to immunization
[3] = system: spleen cells of rats orally tolerized to whole MBP; details: Miller, A. et al. FASEB 6:1686, 1992; words; cited from earlier work
[4] = system: MBP reactive T-cell lines; assay: Reactivity of MBP-reactive T-cell lines to overlapping human MBP peptides (proliferation assay); type: cell-based; details: result in words
Protocol: A rapid T-cell cloning technique was used to examine whether there were immunodominant epitopes on human MBP reactive with Class II MHC phenotypes and the frequency of such reactivity. A total of 15,824 short term T-cell lines were generated from 51 human subjects by culturing peripheral blood mononuclear cells ([…]) with purified MBP (100 μg) followed 3 days later, and then every 3-4 days, by the addition of interleukin-2 (IL-2; from ABI, Columbia, Md.) and 2 units recombinant interleukin-4 (IL-4; Genzyme, Boston, Mass.). On Day 13 of culture, an aliquot from each line was tested for reactivity to MBP using the following proliferation assay: T-cell clones (1×10^5 cells/well) were plated in triplicate and cocultured with appropriate stimuli (i.e. 100 μg whole MBP or 5% IL-2) for 72 hours at 37° C., 90% humidity, 5% CO2, in 96 well flat bottomed microtiter plates (Costar). […]
Of a total of 302 cell lines from patients with MS that could be expanded and confirmed to react with MBP on repeated analysis, 140 (46.4%) reacted with MBP residues 84-102; and approximately 70-80% reacted with either MBP residues 84-102 or 143-168. […] The actual frequency of T-cells derived from the peripheral blood that reacted with each MBP peptide for each individual subject was calculated. […]

With `CC[C@H](C)[C@H](NC(=O)[C@H](CC(N)=O)NC(=O)[C@H](CCCCN)NC(=O)[C@H](Cc1ccccc1)NC(=O)[C@H](Cc1ccccc1)NC(=O)[C@H](Cc1c[nH]cn1)NC(=O)[C@@H](NC(=O)[C@@H](NC(=O)[C@@H]1CCCN1C(=O)[C@H](CC(N)=O)NC(=O)[C@H](CCC(=O)O)NC(=O)[C@@H](N)CC(=O)O)C(C)C)C(C)C)C(=O)N[C@H](C(=O)N[C@H](C(=O)N1CCC[C@H]1C(=O)N[C@@H](CCCNC(=N)N)C(=O)N[C@H](C(=O)N1CCC[C@H]1C(=O)N[C@@H](Cc1ccc(O)cc1)C(=O)O)[C@@H](C)O)[C@@H](C)O)C(C)C` [MBP 84-102tyr] the “effect of the change on the ability to stimulate proliferation of the MBP-reactive T-cell line (FIG. 8)” value ([1]; compared with MBP 84-102, result in words) was “little or no effect”.

With DENPVVHFFKNI [84-95] the EC50 ([1]; T cell clone Ob.3D1) was over 50 µM.

In the case of DENPVVHFFKNIV [84-96], the EC50 ([1]; T cell clone Hy.2E11) is reported as over 50 µM, the EC50 ([1]; T cell clone Ob.1A12) is reported as over 50 µM and the EC50 ([1]; T cell clone Ob.2F3) is reported as over 50 µM.

DENPVVHFFKNIVT [84-97] showed an EC50 ([1]; T cell clone Ob.1C3) of over 50 µM, an EC50 ([1]; T cell clone Ob.1E10) of over 50 µM and an EC50 ([1]; T cell clone Ob.1H8) of over 50 µM. The EC50 ([1]; T cell clone Ob.2G9) was over 50 µM.

In the case of “MDHARHGFLPRHRDTGILDS [guinea pig MBP peptide 21-40]”, the “suppression of EAE via IV tolerization” value ([2]; administered intravenously prior to immunization) is listed as “but not with”, the “suppression of EAE via oral tolerization” value [2] is listed as “effective in suppressing EAE” and the “TGF-β release from spleen cells” value [3] is listed as “triggered TGF-β release”.

For NPVVHFFKNIVTPRTPP [86-102], the EC50 ([1]; T cell clone Ob.1E10) was over 50 µM, the EC50 ([1]; T cell clone Ob.1H8) was over 50 µM and the EC50 ([1]; T cell clone Ob.2G9) was over 50 µM.

In the case of PVVHFFKNIVTPRTPP [87-102], the EC50 ([1]; T cell clone Ob.1A12) is reported as over 50 µM, the EC50 ([1]; T cell clone Ob.1C3) is reported as over 50 µM and the EC50 ([1]; T cell clone Ob.2F3) is reported as over 50 µM.

In the case of RPGFGYGGRASDYKSAHKG [124-142], the “mean frequency of T-cell lines selectively reactive to the peptide, MS vs controls (FIG. 1)” value [4] is reported as “Significant but less striking increases in reactivity”.

With SLPQKSQRSQDENPVVHF [MBP peptide 71-90] the “suppression of EAE via oral tolerization” value [2] was “also suppressed when given orally”.

With VHFFKNIVTPRTPP [89-102] the EC50 ([1]; T cell clone Hy.2E11) was over 50 µM.

For VVHFFKNIVTPRTPP [88-102], the EC50 ([1]; T cell clone Ob.3D1) was over 50 µM.
